Source: PubChem BioAssay AID1259290 (Sanger Institute, 2017)
Screen: 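Kinases whose loss kills colorectal cancer cells alone or alongside targeted drugs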 (primary screen). System: human SNUC1 colorectal cancer cells. Reagent: siRNA pool against human genes. Challenge: anchor drugs BYL719 1 µM, cetuximab 5 µg/ml or trametinib 10 nM, or DMSO vehicle alone. Detection: 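Viability averaged over replicates and scaled to non-targeting siRNA, robust z-score with no drug, and synergy scores by drug for BYL719, cetuximab and trametinib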. Reading the numbers: viability z-score, siRNA alone: higher = more viable cells; low values mean essential gene. Rule for the call: 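a knock-down without drug scoring a robust z under -3 counts as essential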. Calls: active = essential: knock-down alone cut viability (z below -3); inactive = no clear viability loss with knock-down alone.
In all, the deposit lists 794 reagents; below is an unselected part. In the full data, 9 (1.1%) are marked active. 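Calls rest on knock-down alone, not drug synergy; synergy above 0.15 was grouped apart and does not affect calls.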 A number with no mark means an inactive call. Not all columns of the deposit are shown. Reagent sequences are not shown. Not given: the amount of reagent, the time to read-out.

After knock-down of NEK1 the results were viability z-score, siRNA alone -0.00377.
After knock-down of CDKN2B, the screen gave viability z-score, siRNA alone -0.13.
After knock-down of MYLK, the record shows viability z-score, siRNA alone -0.376.
For FGFR1, the values are viability z-score, siRNA alone 0.663.
Knock-down of ERBB4 came out at: viability z-score, siRNA alone 0.936.
Against DCK the deposit lists viability z-score, siRNA alone -2.82.
For SBK1 the deposit lists viability z-score, siRNA alone 0.928.
Against TGFBR2, the entry reads viability z-score, siRNA alone -0.0604.
After knock-down of ARAF the results were viability z-score, siRNA alone -0.864.
After knock-down of ZAP70 the results were viability z-score, siRNA alone 0.936.
Against PIP5K1B, the entry reads viability z-score, siRNA alone 0.867.
Silencing of TRIM27 came out at: viability z-score, siRNA alone 0.783.
Knock-down of AXIN2 came out at: viability z-score, siRNA alone -1.77.
Against CKS2, the values are viability z-score, siRNA alone 0.936.
Against PRKCE, the values are viability z-score, siRNA alone 0.936.
SMC1A gave viability z-score, siRNA alone -0.697.
With knock-down of NPR2, the record shows viability z-score, siRNA alone 0.0842.
Silencing of MAP3K20 gave: viability z-score, siRNA alone 0.13.
With knock-down of ALK, the record shows viability z-score, siRNA alone 0.626.
Knock-down of TLK1 came out at: viability z-score, siRNA alone -0.367.
After knock-down of MAPKAPK2 the results were viability z-score, siRNA alone 0.245.
After knock-down of HUNK, the screen gave viability z-score, siRNA alone 0.936.
CLK4 gave viability z-score, siRNA alone 0.936.
Depletion of COASY came out at: viability z-score, siRNA alone -0.974.
After knock-down of FLT4 the results were viability z-score, siRNA alone -1.09.
ACVR2B gave viability z-score, siRNA alone 0.936.
For EPHB3, the entry reads viability z-score, siRNA alone 0.166.
ATRX showed viability z-score, siRNA alone 0.936.
